Results deposited as PubChem BioAssay AID504764 (Drosophila RNAi Screening Center, 2011).
Assay: 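Genome-wide screen for regulators of Notch-driven gene expression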 (primary screen). Cell system: Drosophila Kc167 cells. Reagents: long dsRNA against Drosophila genes. Duration: about 5 days (4 days dsRNA, then 24 h after transfection). Conditions: transfection of constitutively active membrane-tethered Notch lacking the extracellular domain, read 24 h later. Measurement: 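Firefly luciferase from an E(spl)m3 reporter with active Notch, plus control-promoter and uninduced reporter wells for normalisation; unnormalised counts, duplicate wells a and b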. Scale: induced reporter light, run 1, well a and induced reporter light, run 1, well b: higher = more light from the Notch target reporter with active Notch; control promoter light, run 1, well a and control promoter light, run 1, well b: higher = more light from the viral control promoter (cell number, transfection, viability); uninduced reporter light, run 1, well a: higher = more light from the Notch target reporter without active Notch. Hit rule: 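Hit if the duplicate-averaged log2 ratio of induced to control-promoter light gives a plate-wise z beyond ±2, or induced to uninduced beyond ±1.8; weak-control or discordant-duplicate wells dropped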. Meaning of the calls: active = modifier hit (raised or lowered Notch signal); inactive = not a hit.
In all, the deposit lists about 22,000 reagents; this is a random part of those with a known target gene and a result. Of all reagents, 403 (1.9%) got an active call. 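Unnormalised raw counts per well; ratio z-scores behind the hit calls and whether each hit raises or lowers signal are not deposited.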 Reagent sequences are not shown. The record does not give: the amount of reagent.

How did the screen score CG12971 [DRSC11681]?
induced reporter light, run 1, well a: 1.22e5; induced reporter light, run 1, well b: 1.32e5; control promoter light, run 1, well a: 92760; control promoter light, run 1, well b: 93580; uninduced reporter light, run 1, well a: 7585; call: inactive

What is on record for nudE [DRSC09000]?
induced reporter light, run 1, well a: 1.39e5; induced reporter light, run 1, well b: 1.37e5; control promoter light, run 1, well a: 1.72e5; control promoter light, run 1, well b: 1.58e5; uninduced reporter light, run 1, well a: 9235; call: inactive

With nudE [DRSC10962], what does the deposit list?
induced reporter light, run 1, well a: 1.66e5; induced reporter light, run 1, well b: 1.06e5; control promoter light, run 1, well a: 1.87e5; control promoter light, run 1, well b: 1.94e5; uninduced reporter light, run 1, well a: 8992; call: inactive

For Plzf [DRSC02994], what was measured?
induced reporter light, run 1, well a: 1.67e5; induced reporter light, run 1, well b: 2.28e5; control promoter light, run 1, well a: 1.42e5; control promoter light, run 1, well b: 1.40e5; uninduced reporter light, run 1, well a: 15125; call: inactive

What is on record for Wnt6 [DRSC02795]?
induced reporter light, run 1, well a: 2.39e5; induced reporter light, run 1, well b: 2.03e5; control promoter light, run 1, well a: 2.28e5; control promoter light, run 1, well b: 2.44e5; uninduced reporter light, run 1, well a: 11255; call: inactive

With Nek2 [DRSC18124], what was measured?
induced reporter light, run 1, well a: 2.03e5; induced reporter light, run 1, well b: 1.68e5; control promoter light, run 1, well a: 2.11e5; control promoter light, run 1, well b: 1.77e5; uninduced reporter light, run 1, well a: 15120; call: inactive

With CG3699 [DRSC18171], how do the results read?
induced reporter light, run 1, well a: 1.33e5; induced reporter light, run 1, well b: 1.26e5; control promoter light, run 1, well a: 1.95e5; control promoter light, run 1, well b: 2.17e5; uninduced reporter light, run 1, well a: 8195; call: inactive

Which result is listed for CG3699 [DRSC18642]?
induced reporter light, run 1, well a: 53590; induced reporter light, run 1, well b: 48930; control promoter light, run 1, well a: 86155; control promoter light, run 1, well b: 78525; uninduced reporter light, run 1, well a: 5095; call: inactive

What did the screen give for Zasp67 [DRSC10169]?
induced reporter light, run 1, well a: 2.38e5; induced reporter light, run 1, well b: 1.82e5; control promoter light, run 1, well a: 3.17e5; control promoter light, run 1, well b: 2.71e5; uninduced reporter light, run 1, well a: 10925; call: inactive

With Z600 [DRSC11317], how do the results read?
induced reporter light, run 1, well a: 2.23e5; induced reporter light, run 1, well b: 1.45e5; control promoter light, run 1, well a: 2.02e5; control promoter light, run 1, well b: 1.92e5; uninduced reporter light, run 1, well a: 12070; call: inactive

For park [DRSC11618], what does the deposit list?
induced reporter light, run 1, well a: 1.27e5; induced reporter light, run 1, well b: 1.32e5; control promoter light, run 1, well a: 85605; control promoter light, run 1, well b: 95315; uninduced reporter light, run 1, well a: 8630; call: inactive

How did the screen score CG34299 [DRSC13974]?
induced reporter light, run 1, well a: 2.08e5; induced reporter light, run 1, well b: 1.71e5; control promoter light, run 1, well a: 1.88e5; control promoter light, run 1, well b: 1.88e5; uninduced reporter light, run 1, well a: 15020; call: inactive

For CG12780 [DRSC06169], what does the deposit list?
induced reporter light, run 1, well a: 1.73e5; induced reporter light, run 1, well b: 1.58e5; control promoter light, run 1, well a: 1.72e5; control promoter light, run 1, well b: 2.09e5; uninduced reporter light, run 1, well a: 14285; call: inactive

What did the screen give for Qsox4 [DRSC14224]?
induced reporter light, run 1, well a: 79365; induced reporter light, run 1, well b: 76175; control promoter light, run 1, well a: 80265; control promoter light, run 1, well b: 61880; uninduced reporter light, run 1, well a: 7045; call: inactive

With FMRFa [DRSC07428], what does the deposit list?
induced reporter light, run 1, well a: 1.75e5; induced reporter light, run 1, well b: 1.75e5; control promoter light, run 1, well a: 2.50e5; control promoter light, run 1, well b: 2.58e5; uninduced reporter light, run 1, well a: 17175; call: inactive

What is on record for CG10680 [DRSC02093]?
induced reporter light, run 1, well a: 45955; induced reporter light, run 1, well b: 40245; control promoter light, run 1, well a: 46210; control promoter light, run 1, well b: 43115; uninduced reporter light, run 1, well a: 2975; call: inactive

For CG12911 [DRSC06226], what does the deposit list?
induced reporter light, run 1, well a: 1.88e5; induced reporter light, run 1, well b: 1.97e5; control promoter light, run 1, well a: 2.88e5; control promoter light, run 1, well b: 2.08e5; uninduced reporter light, run 1, well a: 16590; call: inactive

How did the screen score PpV [DRSC18700]?
induced reporter light, run 1, well a: 1.11e5; induced reporter light, run 1, well b: 1.25e5; control promoter light, run 1, well a: 2.06e5; control promoter light, run 1, well b: 2.31e5; uninduced reporter light, run 1, well a: 7692; call: inactive

Part of the list above in another layout.
{"gene": "CG34299", "dsRNA": "DRSC13974", "induced reporter light, run 1, well a": 2.08e5, "induced reporter light, run 1, well b": 1.71e5, "control promoter light, run 1, well a": 1.88e5, "control promoter light, run 1, well b": 1.88e5, "uninduced reporter light, run 1, well a": 15020, "call": "inactive"}
{"gene": "CG12780", "dsRNA": "DRSC06169", "induced reporter light, run 1, well a": 1.73e5, "induced reporter light, run 1, well b": 1.58e5, "control promoter light, run 1, well a": 1.72e5, "control promoter light, run 1, well b": 2.09e5, "uninduced reporter light, run 1, well a": 14285, "call": "inactive"}
